{"sequences": {"note": "Amino acid sequences for entries named in this document (tags omitted).", "UniProt P01106": "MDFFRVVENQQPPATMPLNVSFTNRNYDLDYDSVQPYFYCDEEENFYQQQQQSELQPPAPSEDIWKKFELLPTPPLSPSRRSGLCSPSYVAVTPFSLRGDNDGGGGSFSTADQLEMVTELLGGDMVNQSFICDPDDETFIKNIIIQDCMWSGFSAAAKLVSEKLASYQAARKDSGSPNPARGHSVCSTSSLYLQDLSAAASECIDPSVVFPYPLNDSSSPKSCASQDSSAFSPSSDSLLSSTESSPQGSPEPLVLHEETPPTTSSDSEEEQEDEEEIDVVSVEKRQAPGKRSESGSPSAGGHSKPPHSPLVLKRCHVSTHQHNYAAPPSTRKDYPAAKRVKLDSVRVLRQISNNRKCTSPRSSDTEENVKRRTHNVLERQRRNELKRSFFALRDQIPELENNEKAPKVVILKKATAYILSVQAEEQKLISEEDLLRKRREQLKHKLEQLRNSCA", "UniProt Q9UKL0": "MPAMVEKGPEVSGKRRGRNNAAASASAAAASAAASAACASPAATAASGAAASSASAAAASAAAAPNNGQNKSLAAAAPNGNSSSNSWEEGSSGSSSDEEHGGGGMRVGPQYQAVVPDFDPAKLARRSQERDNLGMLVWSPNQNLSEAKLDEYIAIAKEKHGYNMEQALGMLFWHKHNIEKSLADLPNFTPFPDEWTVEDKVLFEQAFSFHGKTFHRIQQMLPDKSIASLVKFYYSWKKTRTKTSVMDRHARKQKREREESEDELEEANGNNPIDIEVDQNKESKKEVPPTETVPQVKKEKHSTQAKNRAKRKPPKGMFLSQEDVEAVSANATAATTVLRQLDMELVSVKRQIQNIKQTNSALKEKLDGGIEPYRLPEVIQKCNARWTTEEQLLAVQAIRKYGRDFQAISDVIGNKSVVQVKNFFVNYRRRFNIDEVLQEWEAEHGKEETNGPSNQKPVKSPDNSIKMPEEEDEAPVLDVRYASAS"}, "source": "paper doi:10.1101/2024.12.23.630174", "biological_target": "MYC (human (endogenous in WM983B)) (UniProt P01106)", "test": "proximity ligation", "note": "No constants are given. Whether binding was seen depends on the method and setting. In cells and extracts the contact can be indirect. Some entries that bind do so weakly or less than the wild type.", "data": [{"substance": "REST corepressor 1 (RCOR1) (from UniProt Q9UKL0 1-485)", "values": [{"measurement": "binding", "result": "binds"}]}]}
